# PubChem BioAssay (NCATS)
# The shares of active, inactive and inconclusive entries below differ from those in the screen. Potencies of inconclusive entries are doubtful fits and often do not repeat. Calls of active or inactive are those of the source. The call rests on the fitted dose curve.
# Test: VSVG counterscreen qHTS to identify inhibitors of SARS-CoV-2 cell entry (AID 1645847); further: nearly all actives have a fitted effect of over 65% in size
# Details: VSV-G pseudotyped particle entry, luciferase; series mostly up to 57.2 µM
# Outline: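 HEK293-ACE2 cells (Expi293F, human ACE2) pretreated 1 h with compound, then infected with MLV-based VSV-G pseudotyped particles for 48 h at 37 C; luciferase luminescence normalized to VSV-G PP and bald PP wells.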
# Potency means the concentration at half of the fitted maximal effect.
row,SMILES,Potency
1,O=C(O)c1cc(O)c2c(c1)[C@H]([C@H]1c3cc(C(=O)O)cc(O)c3C(=O)c3c(O[C@@H]4O[C@H](CO)[C@@H](O)[C@H](O)[C@H]4O)cccc31)c1cccc(O[C@@H]3O[C@H](CO)[C@@H](O)[C@H](O)[C@H]3O)c1C2=O,"inconclusive: 0.0074 µM [inhibitor, full curve, poor fit]"
2,C=C1[C@H](CO)[C@@H](O)C[C@@H]1n1cnc2c(=O)[nH]c(N)nc21,"inconclusive: 17.1 µM [inhibitor, partial curve]"
3,CCCCCCCCCCCCCCCCCCCCCC(=O)Nc1ccn([C@@H]2O[C@H](CO)[C@@H](O)[C@@H]2O)c(=O)n1,inactive
4,Cc1c(Cl)c(C)[n+]([O-])c(Cl)c1-c1noc(-c2cc(O)c(O)c([N+](=O)[O-])c2)n1,"inconclusive: 42.9 µM [inhibitor, partial curve, poor fit]"
5,CC(C)(C)NC(=O)[C@@H]1C[C@@H]2CCCC[C@H]2CN1C[C@@H](O)[C@H](Cc1ccccc1)NC(=O)[C@H](CC(N)=O)NC(=O)c1ccc2ccccc2n1,"inconclusive: 24.1 µM [inhibitor, partial curve]"
6,CCCc1cc(=O)[nH]c(=S)[nH]1,inactive
7,CC(C)=CCOc1ccc(/C=C/C(=O)c2ccc(OCC=C(C)C)cc2OCC(=O)O)cc1,"inconclusive: 24.1 µM [inhibitor, partial curve]"
8,COC(c1ccccc1)(c1ccccc1)[C@H](Oc1nc(C)cc(C)n1)C(=O)O,inactive
9,CCCCCCCCCCCCCCCCC(C(=O)O)C(O)(CC(=O)O)C(=O)O (centres undefined),inactive
